Some of these results come from one statement about several compounds together. At least one structure is not confirmed: it was looked up by name or label, or the drawing left a doubt. Some compounds share one range, which may span the group rather than tell each member.
Assay: Normal rat biodistribution
Format: in vivo
Settings: within 4 h
Method: The resolution of a clot image is dependant on the combination of rate of incorporation of the radiopharmaceutical and its blood/tissues clearance rate. For this reason the biodistribution of several compounds has been determined in rats. Male Wistar (100-150 g) rats were injected i.v. with 0.1-0.2 ml of radiolabelled tracer solution (8 MBq/ml) and dissected at different times post-injection. The % ID in each of the selected tissues was measured. Some animals were kept in metabolism cages to be able to determine the % ID excreted in urine and faeces. The dissection times used for the majority of the agents was 2, 15, 30, 60, 240 min. Data are shown as % ID, Mean±SD, (n=3).

| SMILES | % ID excreted by the urinary system |
| --- | --- |
| CC(CNCc1ccccc1O)(CNCc1ccccc1O)CNC(=O)c1ccc(S(=O)(=O)NCCCCCN)cc1 [Compound 25, N,N′-bis-(2-hydroxybenzyl)-2-(4-N-(5-aminopentyl)amidosulphonyl)benzamidomethyl-2-methyl-propane-1,3-diamine] | 50-90 % ID |
| NCCCCCNS(=O)(=O)c1ccc(C(=O)NCCCNC(=O)c2ccc(NN)nc2)cc1 [Compound 24, N-[6-hydrazinopyridine-3-carbonyl]-N′-(4-N-(5-aminopentyl)amidosulphonyl)benzoyl propane-1,3-diamine] | 50-90 % ID |
